# According to the supplement of paper PMC10849652:
# Protein sequences, listed by entry. Tags and fused reporters are not part of them. Lines headed by an entry give the natural chain unless they say otherwise; changes in a name come on top.
# UniProt Q9UL63, whole entry, looked up: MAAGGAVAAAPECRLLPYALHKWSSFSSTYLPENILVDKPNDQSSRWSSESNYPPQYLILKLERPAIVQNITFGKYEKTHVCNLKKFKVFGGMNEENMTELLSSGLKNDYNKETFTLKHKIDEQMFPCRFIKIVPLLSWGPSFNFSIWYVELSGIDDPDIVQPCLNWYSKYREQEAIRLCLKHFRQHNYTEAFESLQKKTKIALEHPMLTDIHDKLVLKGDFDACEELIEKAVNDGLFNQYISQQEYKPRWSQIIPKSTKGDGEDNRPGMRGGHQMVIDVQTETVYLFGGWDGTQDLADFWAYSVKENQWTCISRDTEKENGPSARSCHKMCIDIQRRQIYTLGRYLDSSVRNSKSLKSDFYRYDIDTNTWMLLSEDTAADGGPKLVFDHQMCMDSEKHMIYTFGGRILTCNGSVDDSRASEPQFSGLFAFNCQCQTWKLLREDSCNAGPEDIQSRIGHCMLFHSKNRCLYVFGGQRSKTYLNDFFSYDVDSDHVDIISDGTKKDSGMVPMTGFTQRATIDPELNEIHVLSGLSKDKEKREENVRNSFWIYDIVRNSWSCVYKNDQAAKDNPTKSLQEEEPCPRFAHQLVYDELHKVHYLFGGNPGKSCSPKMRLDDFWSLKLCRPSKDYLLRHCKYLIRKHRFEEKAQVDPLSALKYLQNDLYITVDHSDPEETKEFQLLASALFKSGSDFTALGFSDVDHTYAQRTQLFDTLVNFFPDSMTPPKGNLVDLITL
# UniProt Q9Y3A3: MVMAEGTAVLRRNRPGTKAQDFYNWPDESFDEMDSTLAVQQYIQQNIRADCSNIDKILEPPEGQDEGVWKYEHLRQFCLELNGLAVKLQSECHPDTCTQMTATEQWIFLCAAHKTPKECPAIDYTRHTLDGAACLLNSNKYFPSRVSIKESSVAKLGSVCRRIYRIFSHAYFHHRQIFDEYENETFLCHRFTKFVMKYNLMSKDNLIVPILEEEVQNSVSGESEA
# UniProt A9UHW6: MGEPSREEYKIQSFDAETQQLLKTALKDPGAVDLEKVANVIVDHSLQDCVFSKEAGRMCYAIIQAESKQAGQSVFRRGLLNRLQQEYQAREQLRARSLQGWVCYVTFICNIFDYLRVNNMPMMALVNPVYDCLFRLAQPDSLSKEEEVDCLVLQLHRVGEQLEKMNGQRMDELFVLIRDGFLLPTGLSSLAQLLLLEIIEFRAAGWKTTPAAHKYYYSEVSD
# UniProt Q9NV56, whole entry, looked up: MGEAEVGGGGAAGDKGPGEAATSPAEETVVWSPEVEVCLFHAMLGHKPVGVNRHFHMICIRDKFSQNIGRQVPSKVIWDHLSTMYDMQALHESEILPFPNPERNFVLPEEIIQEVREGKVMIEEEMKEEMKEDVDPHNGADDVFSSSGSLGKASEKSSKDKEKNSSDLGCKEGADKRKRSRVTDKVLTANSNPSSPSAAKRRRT
# UniProt Q8TAP9: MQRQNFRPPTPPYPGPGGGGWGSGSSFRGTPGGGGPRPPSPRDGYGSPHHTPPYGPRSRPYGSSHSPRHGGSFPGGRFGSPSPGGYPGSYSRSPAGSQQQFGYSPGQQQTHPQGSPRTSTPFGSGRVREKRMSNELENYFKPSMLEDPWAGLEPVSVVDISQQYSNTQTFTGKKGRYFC
# UniProt Q5XKP0: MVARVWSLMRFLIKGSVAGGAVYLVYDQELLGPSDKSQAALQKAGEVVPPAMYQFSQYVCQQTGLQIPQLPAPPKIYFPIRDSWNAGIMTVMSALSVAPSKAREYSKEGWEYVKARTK
# UniProt Q9BWT6: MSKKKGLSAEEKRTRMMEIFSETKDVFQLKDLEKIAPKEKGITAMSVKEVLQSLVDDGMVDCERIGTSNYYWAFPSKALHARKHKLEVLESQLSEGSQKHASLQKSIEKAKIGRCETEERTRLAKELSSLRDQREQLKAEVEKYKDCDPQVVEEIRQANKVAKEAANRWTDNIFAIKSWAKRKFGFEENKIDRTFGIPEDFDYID
# UniProt Q99583: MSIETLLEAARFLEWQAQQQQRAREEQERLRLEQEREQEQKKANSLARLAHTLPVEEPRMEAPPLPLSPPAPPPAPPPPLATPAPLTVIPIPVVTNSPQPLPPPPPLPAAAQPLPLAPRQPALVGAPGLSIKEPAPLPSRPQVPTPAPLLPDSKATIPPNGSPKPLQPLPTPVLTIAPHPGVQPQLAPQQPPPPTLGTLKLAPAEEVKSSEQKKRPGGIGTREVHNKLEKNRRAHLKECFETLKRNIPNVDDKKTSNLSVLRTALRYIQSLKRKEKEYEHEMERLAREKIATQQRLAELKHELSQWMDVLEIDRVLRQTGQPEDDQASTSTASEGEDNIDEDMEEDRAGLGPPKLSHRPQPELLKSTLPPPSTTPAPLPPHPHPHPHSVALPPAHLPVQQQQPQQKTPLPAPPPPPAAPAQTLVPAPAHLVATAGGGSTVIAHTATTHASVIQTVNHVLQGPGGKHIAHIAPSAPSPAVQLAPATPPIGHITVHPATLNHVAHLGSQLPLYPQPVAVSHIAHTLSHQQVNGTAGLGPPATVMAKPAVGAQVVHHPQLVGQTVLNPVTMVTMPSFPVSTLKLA
# UniProt Q00013: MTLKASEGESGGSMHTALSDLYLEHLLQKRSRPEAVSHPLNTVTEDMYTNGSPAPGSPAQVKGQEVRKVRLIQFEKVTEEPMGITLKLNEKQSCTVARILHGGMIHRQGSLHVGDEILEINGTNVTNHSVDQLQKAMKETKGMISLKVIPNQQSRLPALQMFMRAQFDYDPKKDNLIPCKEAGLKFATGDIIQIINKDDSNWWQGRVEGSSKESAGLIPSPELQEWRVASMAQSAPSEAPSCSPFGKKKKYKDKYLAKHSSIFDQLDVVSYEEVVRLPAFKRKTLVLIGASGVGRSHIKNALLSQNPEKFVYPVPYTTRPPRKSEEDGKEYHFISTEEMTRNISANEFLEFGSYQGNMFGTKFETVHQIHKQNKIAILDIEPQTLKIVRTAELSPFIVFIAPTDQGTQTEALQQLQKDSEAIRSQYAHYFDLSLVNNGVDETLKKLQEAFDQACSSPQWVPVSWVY
# UniProt Q9NQG6: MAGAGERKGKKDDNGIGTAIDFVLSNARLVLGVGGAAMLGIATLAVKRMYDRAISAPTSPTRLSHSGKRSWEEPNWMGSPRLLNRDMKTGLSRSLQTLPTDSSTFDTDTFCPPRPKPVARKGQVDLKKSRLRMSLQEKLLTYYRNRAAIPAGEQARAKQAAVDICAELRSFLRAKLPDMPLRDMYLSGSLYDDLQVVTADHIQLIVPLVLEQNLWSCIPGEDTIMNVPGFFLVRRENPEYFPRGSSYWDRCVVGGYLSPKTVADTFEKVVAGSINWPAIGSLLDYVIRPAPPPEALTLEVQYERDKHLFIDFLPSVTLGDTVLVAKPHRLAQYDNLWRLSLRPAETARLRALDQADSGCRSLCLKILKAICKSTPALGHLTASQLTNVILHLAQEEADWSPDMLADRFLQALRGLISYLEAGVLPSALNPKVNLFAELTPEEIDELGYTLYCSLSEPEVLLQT
# UniProt P51948: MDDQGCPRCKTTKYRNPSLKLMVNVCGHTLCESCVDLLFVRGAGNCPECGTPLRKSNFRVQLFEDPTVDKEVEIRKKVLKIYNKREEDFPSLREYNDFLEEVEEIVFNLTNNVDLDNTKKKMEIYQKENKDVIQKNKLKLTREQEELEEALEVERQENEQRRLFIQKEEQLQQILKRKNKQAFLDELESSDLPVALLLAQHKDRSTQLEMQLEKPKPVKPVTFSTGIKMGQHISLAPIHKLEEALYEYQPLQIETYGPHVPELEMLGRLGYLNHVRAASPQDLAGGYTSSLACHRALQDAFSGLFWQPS
# UniProt Q9BU76: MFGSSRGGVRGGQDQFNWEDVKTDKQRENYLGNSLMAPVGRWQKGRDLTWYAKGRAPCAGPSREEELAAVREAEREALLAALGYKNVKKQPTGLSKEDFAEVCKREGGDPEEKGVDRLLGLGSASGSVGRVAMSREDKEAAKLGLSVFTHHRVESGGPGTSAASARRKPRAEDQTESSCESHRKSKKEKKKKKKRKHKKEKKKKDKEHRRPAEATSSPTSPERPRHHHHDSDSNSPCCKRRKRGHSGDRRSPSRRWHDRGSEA
# UniProt Q9H000: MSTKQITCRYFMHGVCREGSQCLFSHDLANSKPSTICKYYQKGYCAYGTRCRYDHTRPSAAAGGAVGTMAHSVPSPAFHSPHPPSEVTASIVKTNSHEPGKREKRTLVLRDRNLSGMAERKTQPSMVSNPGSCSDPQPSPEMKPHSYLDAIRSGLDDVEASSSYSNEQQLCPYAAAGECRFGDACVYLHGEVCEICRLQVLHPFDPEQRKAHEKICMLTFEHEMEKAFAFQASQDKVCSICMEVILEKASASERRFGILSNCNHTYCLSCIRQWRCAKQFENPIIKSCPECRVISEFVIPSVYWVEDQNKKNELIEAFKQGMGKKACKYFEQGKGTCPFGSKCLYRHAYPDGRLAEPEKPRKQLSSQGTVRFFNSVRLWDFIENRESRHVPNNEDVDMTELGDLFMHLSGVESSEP
# UniProt Q9H081: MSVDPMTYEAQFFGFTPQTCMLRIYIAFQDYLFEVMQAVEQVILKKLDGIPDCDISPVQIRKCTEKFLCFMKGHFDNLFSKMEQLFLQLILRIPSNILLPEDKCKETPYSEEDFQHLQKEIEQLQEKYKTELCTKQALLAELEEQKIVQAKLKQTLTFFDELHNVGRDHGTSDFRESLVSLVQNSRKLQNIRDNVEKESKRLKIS
# UniProt O94851, whole entry, looked up: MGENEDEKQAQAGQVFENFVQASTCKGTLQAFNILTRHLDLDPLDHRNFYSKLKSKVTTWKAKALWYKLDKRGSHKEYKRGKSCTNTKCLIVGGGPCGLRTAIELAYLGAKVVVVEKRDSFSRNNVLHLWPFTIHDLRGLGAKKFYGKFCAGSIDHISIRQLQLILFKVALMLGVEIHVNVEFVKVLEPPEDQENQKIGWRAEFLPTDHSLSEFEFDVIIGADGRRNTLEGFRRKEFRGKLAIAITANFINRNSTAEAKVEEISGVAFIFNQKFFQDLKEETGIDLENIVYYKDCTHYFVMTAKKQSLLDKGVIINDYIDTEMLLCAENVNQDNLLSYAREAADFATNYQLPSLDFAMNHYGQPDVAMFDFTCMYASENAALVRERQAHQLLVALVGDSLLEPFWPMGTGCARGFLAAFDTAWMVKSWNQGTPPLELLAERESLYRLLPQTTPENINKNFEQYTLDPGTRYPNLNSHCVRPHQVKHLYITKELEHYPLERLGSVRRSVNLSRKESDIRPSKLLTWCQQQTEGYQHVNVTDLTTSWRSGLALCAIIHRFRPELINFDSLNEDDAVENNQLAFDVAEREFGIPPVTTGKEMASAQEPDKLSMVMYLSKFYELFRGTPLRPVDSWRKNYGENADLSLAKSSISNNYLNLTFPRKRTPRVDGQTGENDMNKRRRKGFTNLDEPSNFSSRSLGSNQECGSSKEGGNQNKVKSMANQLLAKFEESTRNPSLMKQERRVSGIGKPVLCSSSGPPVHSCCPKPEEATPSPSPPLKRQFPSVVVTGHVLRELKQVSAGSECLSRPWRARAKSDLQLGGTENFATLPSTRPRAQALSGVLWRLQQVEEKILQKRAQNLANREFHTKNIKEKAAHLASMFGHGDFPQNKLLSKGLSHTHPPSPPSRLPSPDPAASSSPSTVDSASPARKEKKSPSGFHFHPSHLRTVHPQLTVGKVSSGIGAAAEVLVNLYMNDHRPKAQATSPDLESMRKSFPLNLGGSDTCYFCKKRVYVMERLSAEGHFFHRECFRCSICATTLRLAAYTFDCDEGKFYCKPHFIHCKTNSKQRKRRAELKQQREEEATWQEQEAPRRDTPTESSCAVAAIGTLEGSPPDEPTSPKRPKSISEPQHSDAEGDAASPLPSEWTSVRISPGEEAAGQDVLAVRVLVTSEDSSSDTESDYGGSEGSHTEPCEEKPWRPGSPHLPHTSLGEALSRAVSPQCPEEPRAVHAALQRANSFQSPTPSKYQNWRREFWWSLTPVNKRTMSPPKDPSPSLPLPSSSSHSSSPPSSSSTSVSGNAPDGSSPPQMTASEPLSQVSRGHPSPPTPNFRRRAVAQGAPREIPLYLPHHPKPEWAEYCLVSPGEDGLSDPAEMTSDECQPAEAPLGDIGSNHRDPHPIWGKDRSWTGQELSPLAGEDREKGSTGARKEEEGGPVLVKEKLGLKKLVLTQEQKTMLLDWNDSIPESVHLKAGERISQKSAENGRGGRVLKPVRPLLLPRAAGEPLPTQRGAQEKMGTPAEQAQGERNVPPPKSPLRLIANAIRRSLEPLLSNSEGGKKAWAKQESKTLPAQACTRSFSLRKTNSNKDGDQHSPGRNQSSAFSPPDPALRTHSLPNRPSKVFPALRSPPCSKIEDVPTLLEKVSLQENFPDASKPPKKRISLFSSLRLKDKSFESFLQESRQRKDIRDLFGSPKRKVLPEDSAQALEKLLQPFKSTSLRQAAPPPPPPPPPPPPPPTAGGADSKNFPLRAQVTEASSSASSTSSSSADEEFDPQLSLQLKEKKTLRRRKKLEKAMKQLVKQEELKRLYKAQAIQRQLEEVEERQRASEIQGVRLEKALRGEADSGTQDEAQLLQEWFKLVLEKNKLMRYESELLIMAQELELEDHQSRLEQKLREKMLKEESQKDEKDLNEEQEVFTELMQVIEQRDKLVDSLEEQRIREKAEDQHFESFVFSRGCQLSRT
# This is one part of the list. Residues, ends and D or L forms follow the SMILES beside them. *: point of attachment. Cbz = O=C(OCc1ccccc1)*
# What was measured:
# Test in all cases: log2 fold change, soluble protein after heating vs DMSO (PISA); higher = thermal stabilisation; K562 cells, 10 uM, 30 min; active = over 0.2 and 3.5 SD of the protein, either way, in both replicates (recomputed)
# [1] = compound: C1COCCN1CCN2C3=CC=CC=C3N=C2NC(=O)C4=CC(=CC=C4)[N+](=O)[O-] [IRAK-1-4 Inhibitor I]
# Procedure, shortened: (§1)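 Soluble protein was quantified by TMTpro 16plex LC-MS/MS after channel sums were equalised. It was obtained as the supernatant after 21,000xg for 90 min from pooled aliquots of K562 cells (2×10^6 cells/mL, 10 μM compound, 30 min) heated for 3 min across 48°C-58°C and extracted in PBS with 0.5% NP-40 at 4°C. Thermal stability values are relative to control samples and come from duplicates. They are given as log2 fold changes.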
# [2] = compound: C=CC(=O)N1CCC[C@@H](n2nc(-c3ccc(Oc4ccccc4)cc3)c3c(N)ncnc32)C1 [ibrutinib]
# Procedure, shortened: as §1
# [3] = compound: CC(=O)c1cnc2ccc(-c3cc(Cl)c(O)c(Cl)c3)nc2c1N[C@H]1CC[C@H](CN(C)C)CC1
# Procedure, shortened: as §1
# [4] = compound: CC(C)(C)Cn1c(N)nc2ccc(-c3[nH]c(C(C)(C)C)nc3-c3ccc(F)cc3)nc21 [ralimetinib]
# Procedure, shortened: as §1
# [5] = compound: CC(C)(O)CC(=O)NCCn1ccc2ncnc(Nc3ccc(Oc4cccc(C(F)(F)F)c4)c(Cl)c3)c21
# Procedure, shortened: as §1
# [6] = compound: CC(C)C1=C2N=C(C=C(N2N=C1)NCC3=CC=CC=C3)NCCCCCCN
# Procedure, shortened: as §1
# [7] = compound: CC(C)C[C@@H](C=O)NC(=O)[C@H](CC(C)C)NC(=O)[C@H](CC(C)C)NC(=O)OCc1ccccc1
# Procedure, shortened: as §1
# [8] = compound: CC(C)N(C[C@H]1O[C@@H](n2cnc3c(N)ncnc32)[C@H](O)[C@@H]1O)[C@H]1C[C@@H](CCc2nc3cc(C(C)(C)C)ccc3[nH]2)C1 [pinometostat]
# Procedure, shortened: as §1
# [9] = compound: CC1=C(C(CC(=O)N1)C2=CC=C(C=C2)C(F)(F)F)C(=O)NC3=C(C=C4C(=C3)C=NN4)F
# Procedure, shortened: as §1
# [10] = compound: CC1=C(C2=C(C=C1)C(=O)C3=CC=CC=C3N2CCCN)C
# Procedure, shortened: as §1
Target,log2 fold change [1],log2 fold change [2],log2 fold change [3],log2 fold change [4],log2 fold change [5],log2 fold change [6],log2 fold change [7],log2 fold change [8],log2 fold change [9],log2 fold change [10]
MKLN1 (UniProt Q9UL63),inactive: -0.041,inactive: -0.033,inactive: 0.006,inactive: 0.097,inactive: -0.014,inactive: -0.003,inactive: -0.004,inactive: 0.01,inactive: 0.013,inactive: -0.025
MOB4 (UniProt Q9Y3A3),inactive: 0.006,inactive: -0.032,inactive: -0.081,inactive: 0.011,inactive: -0.05,inactive: 0.031,inactive: 0.01,inactive: -0.006,inactive: -0.039,inactive: 0.035
MRPL15 (UniProt Q9P015),inactive: -0.274,inactive: -0.002,inactive: 0.056,inactive: 0.044,inactive: -0.008,inactive: -0.037,inactive: 0.106,inactive: 0.044,inactive: 0.052,inactive: -0.124
MRPL55 isoform 2 (UniProt Q7Z7F7),inactive: -0.089,inactive: -0.107,inactive: 0.11,inactive: 0.085,inactive: 0.003,inactive: 0.013,inactive: 0.138,inactive: 0.153,inactive: -0.061,inactive: -0.037
MIF4GD isoform 3 (UniProt A9UHW6),inactive: -0.033,inactive: -0.038,inactive: -0.133,inactive: -0.049,inactive: 0.034,inactive: 0.061,inactive: 0.056,inactive: 0.027,inactive: 0.041,inactive: 0.064
MIPEP (UniProt Q99797),inactive: 0.008,inactive: 0.005,inactive: -0.053,inactive: -0.109,inactive: -0.06,inactive: -0.009,inactive: 0.014,inactive: -0.053,inactive: -0.016,inactive: 0.042
MRPL38 (UniProt Q96DV4),inactive: -0.08,inactive: -0.007,inactive: 0.073,inactive: 0.048,inactive: 0.016,inactive: 0.008,inactive: 0.093,inactive: 0.141,inactive: -0.026,inactive: -0.115
MRPL28 (UniProt Q13084),inactive: -0.124,inactive: -0.06,inactive: 0.101,inactive: 0.13,inactive: 0.013,inactive: 0.198,inactive: 0.136,inactive: 0.061,inactive: 0.052,inactive: 0.023
MRPL22 (UniProt Q9NWU5),inactive: -0.023,inactive: -0.036,inactive: 0.104,inactive: 0.111,inactive: -0.012,inactive: -0.106,inactive: 0.038,inactive: 0.044,inactive: -0.006,inactive: -0.057
MRGBP (UniProt Q9NV56),inactive: 0.03,inactive: -0.01,inactive: -0.017,inactive: 0.067,inactive: 0.009,inactive: -0.047,inactive: 0.008,inactive: -0.032,inactive: 0.052,inactive: -0.092
MRPL1 (UniProt Q9BYD6),inactive: -0.09,inactive: 0.014,inactive: 0.058,inactive: 0.032,inactive: 0.047,inactive: -0.077,inactive: 0.356,inactive: 0.111,inactive: 0.001,inactive: -0.236
MON1B (UniProt Q7L1V2),inactive: 0.047,inactive: 0.037,inactive: -0.013,inactive: 0.095,inactive: -0.006,active: -0.406,inactive: 0,inactive: -0.039,–,inactive: 0
MPLKIP (UniProt Q8TAP9),inactive: -0.002,inactive: -0.051,inactive: -0.217,inactive: -0.066,inactive: 0.016,inactive: 0.07,inactive: 0.02,inactive: 0.02,inactive: 0.048,inactive: 0.117
MORC3 (UniProt Q14149),inactive: 0.021,inactive: -0.047,inactive: 0.023,inactive: -0.024,inactive: -0.122,inactive: -0.051,inactive: 0.002,inactive: -0.026,–,active: 0.595
MICOS13 (UniProt Q5XKP0),inactive: 0.087,inactive: -0.012,inactive: -0.022,inactive: -0.077,inactive: -0.193,inactive: -0.146,inactive: 0.006,inactive: -0.023,–,inactive: -0.008
MND1 (UniProt Q9BWT6),inactive: -0.022,inactive: 0.069,inactive: -0.053,inactive: 0.052,inactive: 0.008,inactive: -0.182,inactive: 0.173,inactive: 0.076,–,inactive: 0.043

Target,log2 fold change [1],log2 fold change [2],log2 fold change [3],log2 fold change [4],log2 fold change [5],log2 fold change [6],log2 fold change [7],log2 fold change [8],log2 fold change [9],log2 fold change [10]
MRPL46 (UniProt Q9H2W6),inactive: -0.069,inactive: -0.012,inactive: 0.077,inactive: 0.029,inactive: -0.008,inactive: -0.073,inactive: 0.064,inactive: 0.03,–,inactive: -0.026
MRPL34 (UniProt Q9BQ48),inactive: -0.046,inactive: 0.107,inactive: 0.092,inactive: 0.164,inactive: 0.042,inactive: -0.137,inactive: 0.102,inactive: 0.196,–,active: -0.51
MNT (UniProt Q99583),inactive: 0.049,inactive: -0.032,inactive: -0.185,inactive: -0.017,inactive: -0.061,–,inactive: -0.048,inactive: 0.123,inactive: -0.048,inactive: 0.268
MPP1 (UniProt Q00013),inactive: -0.073,inactive: -0.047,inactive: -0.071,inactive: 0.075,inactive: -0.087,inactive: -0.147,inactive: 0.023,inactive: 0.011,–,inactive: 0.029
MOV10 (UniProt Q9HCE1),inactive: -0.135,inactive: 0.002,inactive: 0.069,inactive: 0.12,inactive: 0.082,inactive: 0.02,inactive: 0.033,inactive: 0.163,–,inactive: -0.305
MIEF1 (UniProt Q9NQG6),inactive: 0.056,inactive: -0.003,inactive: -0.016,inactive: -0.07,inactive: -0.183,inactive: -0.247,inactive: -0.034,inactive: -0.038,–,inactive: 0.112
MIER1 isoform 12 (UniProt Q8N108),inactive: 0.055,inactive: -0.012,inactive: -0.035,inactive: 0.033,inactive: -0.021,inactive: -0.062,inactive: 0.03,inactive: -0.013,–,inactive: -0.122
MNAT1 (UniProt P51948),inactive: 0.025,inactive: 0.03,active: -0.221,inactive: -0.044,inactive: 0.024,inactive: 0.062,inactive: -0.028,inactive: 0.022,–,inactive: -0.027
MLXIP (UniProt Q9HAP2),inactive: 0.009,inactive: -0.258,inactive: -0.254,inactive: 0,inactive: -0.061,inactive: -0.063,inactive: -0.035,inactive: -0.094,inactive: 0.049,inactive: 0.02
MMTAG2 (UniProt Q9BU76),inactive: -0.097,inactive: 0.066,inactive: 0.052,inactive: 0.18,–,inactive: 0.097,inactive: 0.089,inactive: 0.137,inactive: -0.031,inactive: -0.141
MKRN2 (UniProt Q9H000),inactive: -0.063,inactive: 0.026,inactive: -0.137,inactive: 0.034,inactive: 0.017,inactive: 0.032,inactive: 0.089,inactive: 0.094,–,inactive: -0.064
MIEN1 (UniProt Q9BRT3),inactive: 0.105,inactive: -0.029,inactive: -0.051,inactive: -0.075,inactive: -0.091,inactive: 0.074,inactive: -0.036,inactive: 0.019,–,inactive: 0.045
MIS12 (UniProt Q9H081),inactive: 0.024,inactive: 0.026,inactive: -0.025,inactive: -0.004,inactive: -0.151,inactive: -0.087,inactive: 0.06,inactive: 0.006,–,inactive: -0.035
MINK1 (UniProt Q8N4C8),inactive: -0.018,inactive: 0.038,active: -0.715,inactive: -0.081,inactive: 0.053,inactive: 0.021,inactive: 0.044,inactive: 0.049,–,inactive: 0.061
MICAL2 (UniProt O94851),inactive: -0.066,inactive: -0.01,inactive: -0.116,inactive: 0.038,inactive: -0.08,–,inactive: 0.136,inactive: 0.014,–,inactive: 0.139

# Single records, from the list above. Order of values: log2 fold change [1]	log2 fold change [2]	log2 fold change [3]	log2 fold change [4]	log2 fold change [5]	log2 fold change [6]	log2 fold change [7]	log2 fold change [8]	log2 fold change [9]	log2 fold change [10]
# MIEN1 (UniProt Q9BRT3) in the list: inactive: 0.105	inactive: -0.029	inactive: -0.051	inactive: -0.075	inactive: -0.091	inactive: 0.074	inactive: -0.036	inactive: 0.019	–	inactive: 0.045
# MNT (UniProt Q99583) in the list: inactive: 0.049	inactive: -0.032	inactive: -0.185	inactive: -0.017	inactive: -0.061	–	inactive: -0.048	inactive: 0.123	inactive: -0.048	inactive: 0.268
